Experiment [1] addresses T1, GST-CDC25C^200–256 (human) (UniProt P30307).
T1 sequence: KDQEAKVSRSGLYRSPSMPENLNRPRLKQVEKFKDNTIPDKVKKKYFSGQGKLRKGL
Description: pull-down; GST-tagged proteins (500 ng) bound to glutathione Sepharose 4B beads, incubated 45 min at 4 °C with His-PCNA (500 ng) in 1 mL of 20 mM Tris pH 7.5, 0.1% Triton X-100, 1 mM MgCl2, 5 mM βME, 137 mM NaCl, 5% glycerol; two washes; western blot; both purified. On the technique in general: In western blotting, separated proteins are transferred to a membrane and probed.

Sequences of proteins named here, by UniProt entry; tags and fusion partners are left off.
UniProt P83887: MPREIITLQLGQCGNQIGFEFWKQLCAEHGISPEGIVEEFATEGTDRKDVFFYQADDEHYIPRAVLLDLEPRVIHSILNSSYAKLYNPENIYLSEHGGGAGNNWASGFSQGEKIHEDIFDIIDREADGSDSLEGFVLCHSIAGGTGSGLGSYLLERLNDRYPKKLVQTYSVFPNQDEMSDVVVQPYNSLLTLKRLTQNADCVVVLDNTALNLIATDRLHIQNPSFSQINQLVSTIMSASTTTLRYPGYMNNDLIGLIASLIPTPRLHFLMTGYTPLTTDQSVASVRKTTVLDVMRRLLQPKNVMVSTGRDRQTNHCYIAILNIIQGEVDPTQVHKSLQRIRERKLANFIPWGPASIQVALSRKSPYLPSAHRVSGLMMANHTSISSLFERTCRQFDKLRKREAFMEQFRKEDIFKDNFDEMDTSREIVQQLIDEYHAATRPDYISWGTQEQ
UniProt P12004: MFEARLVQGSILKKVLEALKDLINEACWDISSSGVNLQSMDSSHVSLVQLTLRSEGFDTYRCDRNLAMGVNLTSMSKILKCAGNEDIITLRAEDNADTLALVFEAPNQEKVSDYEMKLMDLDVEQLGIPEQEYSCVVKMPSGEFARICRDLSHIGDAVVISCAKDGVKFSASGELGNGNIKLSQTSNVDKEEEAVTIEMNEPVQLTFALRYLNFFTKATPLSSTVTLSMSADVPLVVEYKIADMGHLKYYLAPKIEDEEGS
UniProt P17918: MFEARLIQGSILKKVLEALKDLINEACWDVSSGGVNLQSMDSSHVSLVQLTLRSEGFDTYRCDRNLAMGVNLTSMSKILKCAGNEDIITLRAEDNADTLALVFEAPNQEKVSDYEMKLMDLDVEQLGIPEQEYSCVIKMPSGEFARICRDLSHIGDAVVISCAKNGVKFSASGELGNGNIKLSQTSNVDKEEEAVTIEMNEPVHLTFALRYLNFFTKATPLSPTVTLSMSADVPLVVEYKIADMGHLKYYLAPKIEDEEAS

The target in experiment [2] is γ-tubulin 1 (endogenous, NIH3T3 cells) (mouse (endogenous in NIH3T3)) (UniProt P83887). Description: co-IP; γ-tubulin immunoprecipitated with anti-γ-tubulin (mouse monoclonal T6557) from cytosolic and chromatin fractions (micrococcal nuclease, sonicated; 1% Triton X-100, 20 mM Tris pH 7.5, 150 mM NaCl) of NIH3T3 cells and of S phase-synchronized U2OS and MCF10A cells; western blot for PCNA.

These are yes or no findings as the source states them, for the method shown. For some assays here: In cells and extracts the contact can be indirect. Some entries that bind do so weakly or less than the wild type. For some assays here: Where a sequence is shown, tags or fusion partners need not be part of it.

On to “His6-tagged PCNA (from UniProt P12004 1-261)”, for which the binding result in experiment [1] is “no binding (tested: 500 ng PCNA in 1 mL)”.
Consider “proliferating cell nuclear antigen (endogenous, NIH3T3 cells) (from UniProt P17918 1-261)”, for which the binding result in experiment [2] was “binds”.

Source of the values: paper PMC8219688.
